The target in the assay is peroxisome proliferator-activated receptor γ (mouse (endogenous in splenic B cells)) (UniProt P37238). Nature of the assay: co-IP; whole-cell extracts of mouse B cells; IP with anti-PPARγ overnight at 4°C, protein A-Sepharose, IB with anti-p-STAT6; IP buffer 50 mM Tris-HCl pH 7.5, 150 mM NaCl, 1 mM EDTA, 0.5% NP-40; rabbit IgG as control antibody.

Protein sequences, listed by entry. Tags and fused reporters are not part of them.
UniProt P37238: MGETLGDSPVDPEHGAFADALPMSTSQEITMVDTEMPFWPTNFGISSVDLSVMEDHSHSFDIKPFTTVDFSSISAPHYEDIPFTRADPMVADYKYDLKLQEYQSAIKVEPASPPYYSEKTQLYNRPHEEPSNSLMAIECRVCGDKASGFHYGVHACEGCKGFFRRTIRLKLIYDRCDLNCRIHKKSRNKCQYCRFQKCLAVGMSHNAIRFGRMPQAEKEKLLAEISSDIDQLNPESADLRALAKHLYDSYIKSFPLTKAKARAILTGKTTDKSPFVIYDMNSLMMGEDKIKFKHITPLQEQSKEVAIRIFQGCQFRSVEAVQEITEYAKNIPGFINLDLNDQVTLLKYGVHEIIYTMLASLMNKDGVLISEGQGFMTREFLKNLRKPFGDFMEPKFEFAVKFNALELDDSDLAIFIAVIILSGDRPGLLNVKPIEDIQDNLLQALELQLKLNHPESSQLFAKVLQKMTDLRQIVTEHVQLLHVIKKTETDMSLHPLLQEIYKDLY

Here are results for 1 molecule from PMC7317005.

Results are given in words; binding and its absence hold for the method and conditions named. In cells and extracts the contact can be indirect. Some results given as binding are weak or reduced against the parent protein; the word gives no strength.

B1: phosphorylated signal transducer and activator of transcription 6 (protein, UniProt P52633 1-837)
chain: MSLWGLISKMSPEKLQRLYVDFPQRLRHLLADWLESQPWEFLVGSDAFCYNMASALLSATVQRLQATAGEQGKGNSILPHISTLESIYQRDPLKLVATIRQILQGEKKAVIEEFRHLPGPFHRKQEELKFTTALGRLQHRVRETRLLRESLQQGAKTGQVSLQNLIDPPVNGPGPSEDLATMLQGTVGDLEATQALVLKRIQIWKRQQQLAGNGTPFEESLAGLQERCESLVEIYSQLQQEIGAASGELEPKTRASLISRLDEVLRTLVTSSFLVEKQPPQVLKTQTKFQAGVRFLLGLQFLGTSAKPPMVRADMVTEKQARELSLAQGPGTGVESTGEIMNNTVPLENSIPSNCCSALFKNLLLKKIKRCERKGTESVTEEKCAVLFSTSFTLGPNKLLIQLQALSLPLVVIVHGNQDNNAKATILWDNAFSEMDRVPFVVAERVPWEKMCETLNLKFMAEVGTSRGLLPEHFLFLAQKIFNDNSLSVEAFQHRCVSWSQFNKEILLGRGFTFWQWFDGVLDLTKRCLRSYWSDRLIIGFISKQYVTSLLLNEPDGTFLLRFSDSEIGGITIAHVIRGQDGSSQIENIQPFSAKDLSIRSLGDRIRDLAQLKNLYPKKPKDEAFRSHYKPEQMGKDGRGYVSTTIKMTVERDQPLPTPEPQMPAMVPPYDLGMAPDASMQLSSDMGYPPQSIHSFQSLEESMSVLPSFQEPHLQMPPNMSQITMPFDQPHPQGLLQCQSQEHAVSSPEPMLCSDVTMVEDSCLTQPVGGFPQGTWVSEDMYPPLMPPTEQDLTKLLLENQGEAGGSLGSQPLLQPSPYGQSGISLSHLDLRTNPSW
modifications: phosphotyrosine at 641 (detected with antibody to Phospho-STAT6 (Tyr641))
As to B1, the binding entry is given as “binds”.
